# Assay results taken from publication PMC11550886.
# Amino acid sequences for entries named in this document (tags omitted). A change or cut given only in a name is not applied to a line headed by its entry. Residues count along the entry.
# UniProt P29400, residues 1461-1685: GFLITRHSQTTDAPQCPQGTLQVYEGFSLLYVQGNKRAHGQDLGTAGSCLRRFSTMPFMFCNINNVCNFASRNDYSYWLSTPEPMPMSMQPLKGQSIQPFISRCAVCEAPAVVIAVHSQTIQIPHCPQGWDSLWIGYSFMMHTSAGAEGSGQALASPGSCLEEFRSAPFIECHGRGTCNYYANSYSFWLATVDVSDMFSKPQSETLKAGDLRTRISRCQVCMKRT
# UniProt P05556: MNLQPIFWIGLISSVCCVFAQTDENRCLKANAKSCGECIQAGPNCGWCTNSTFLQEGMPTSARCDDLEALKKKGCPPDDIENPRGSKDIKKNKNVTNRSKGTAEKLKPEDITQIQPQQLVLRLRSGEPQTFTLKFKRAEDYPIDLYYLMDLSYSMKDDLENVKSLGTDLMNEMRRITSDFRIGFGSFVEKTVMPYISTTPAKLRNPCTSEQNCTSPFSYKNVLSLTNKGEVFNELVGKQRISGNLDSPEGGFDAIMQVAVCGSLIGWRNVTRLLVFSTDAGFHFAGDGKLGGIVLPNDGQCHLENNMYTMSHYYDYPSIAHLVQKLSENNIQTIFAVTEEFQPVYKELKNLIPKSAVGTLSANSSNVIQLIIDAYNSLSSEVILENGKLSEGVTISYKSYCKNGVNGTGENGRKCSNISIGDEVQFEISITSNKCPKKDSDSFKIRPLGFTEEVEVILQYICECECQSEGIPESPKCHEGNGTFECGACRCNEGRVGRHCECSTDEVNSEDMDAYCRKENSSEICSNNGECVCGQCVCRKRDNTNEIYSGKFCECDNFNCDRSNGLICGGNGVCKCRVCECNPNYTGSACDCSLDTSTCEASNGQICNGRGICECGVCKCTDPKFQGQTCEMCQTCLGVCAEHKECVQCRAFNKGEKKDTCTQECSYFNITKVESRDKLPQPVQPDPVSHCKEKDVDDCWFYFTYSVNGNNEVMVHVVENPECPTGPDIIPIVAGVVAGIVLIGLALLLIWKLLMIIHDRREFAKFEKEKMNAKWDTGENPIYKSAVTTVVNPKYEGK
# UniProt P56199: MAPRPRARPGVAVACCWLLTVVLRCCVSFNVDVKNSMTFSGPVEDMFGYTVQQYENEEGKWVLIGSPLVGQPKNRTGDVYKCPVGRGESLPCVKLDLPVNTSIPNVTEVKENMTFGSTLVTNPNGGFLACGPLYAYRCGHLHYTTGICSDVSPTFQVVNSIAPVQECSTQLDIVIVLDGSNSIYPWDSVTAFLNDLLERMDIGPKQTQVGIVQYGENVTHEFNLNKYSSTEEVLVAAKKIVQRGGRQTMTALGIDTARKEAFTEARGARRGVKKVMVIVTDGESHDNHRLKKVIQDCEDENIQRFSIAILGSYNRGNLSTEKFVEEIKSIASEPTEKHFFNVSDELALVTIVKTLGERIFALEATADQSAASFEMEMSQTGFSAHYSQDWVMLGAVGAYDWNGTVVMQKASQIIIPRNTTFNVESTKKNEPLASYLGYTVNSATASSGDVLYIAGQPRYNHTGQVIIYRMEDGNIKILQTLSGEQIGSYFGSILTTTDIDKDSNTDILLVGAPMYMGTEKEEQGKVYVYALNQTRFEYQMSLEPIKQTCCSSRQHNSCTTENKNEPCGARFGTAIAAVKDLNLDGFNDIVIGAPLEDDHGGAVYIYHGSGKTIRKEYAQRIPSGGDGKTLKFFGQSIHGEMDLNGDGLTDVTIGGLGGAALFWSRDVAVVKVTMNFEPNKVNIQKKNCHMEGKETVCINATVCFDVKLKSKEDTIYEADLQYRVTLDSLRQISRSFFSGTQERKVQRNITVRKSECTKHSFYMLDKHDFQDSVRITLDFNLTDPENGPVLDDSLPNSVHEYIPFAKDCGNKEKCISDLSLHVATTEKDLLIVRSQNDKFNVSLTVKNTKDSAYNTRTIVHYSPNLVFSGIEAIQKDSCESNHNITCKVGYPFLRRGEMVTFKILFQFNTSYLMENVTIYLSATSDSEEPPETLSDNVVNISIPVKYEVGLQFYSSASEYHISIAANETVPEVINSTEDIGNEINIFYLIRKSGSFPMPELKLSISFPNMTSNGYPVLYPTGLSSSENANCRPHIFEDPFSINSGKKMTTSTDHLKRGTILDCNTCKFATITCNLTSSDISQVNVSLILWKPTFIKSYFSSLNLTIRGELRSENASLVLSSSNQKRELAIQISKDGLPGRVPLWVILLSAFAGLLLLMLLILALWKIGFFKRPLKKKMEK
# Results are given in words; binding and its absence hold for the method and conditions named. For some of these results: Binding seen in cells or lysates may run through a third protein. Some entries that bind do so weakly or less than the wild type.
# Tests used:
# [1] = biological target: recombinant C-terminal NC1 fragment (Gly1461 ~ Thr1685) of the collagen IVα5 polypeptide (human) (UniProt P29400); test: co-IP; confluent adherent hPAECs exposed to recombinant NC1 for 10 min, cross-linked with 1% PFA, quenched with 100 mM glycine; precleared lysates incubated with 10 µg/mL monoclonal C-terminal collagen IVα5 antibody, captured on Protein G Sepharose; blotted with anti-β1-integrin antibody (clone MB1.2); only the target purified
# pentastatin (human) = biological target: T1, pentastatin (human); test: ELISA; solid-phase binding assay: plate coated with 10 µg/mL NC1, pentastatin, random peptide or BSA in 50 mM NaHCO3 pH 9.6, 4°C overnight; α1β1-integrin 1 µg/mL in TBS with 1% BSA, 1 mM MgCl2, 2 mM CaCl2, RT 3 h; detected with biotinylated anti-β1-integrin antibody and streptavidin-peroxidase; normalised to BSA-coated wells; both purified
# T1 sequence (peptide): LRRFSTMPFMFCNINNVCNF
# [2] = biological target: recombinant C-terminal NC1 fragment (Gly1461 ~ Thr1685) of the collagen IVα5 polypeptide (human) (UniProt P29400); test: as above
# random peptide control = test: condition: α1β1-integrin 1 µg/mL; peptide coated at 10 µg/mL; ELISA; solid-phase binding assay: plate coated with 10 µg/mL NC1, pentastatin, random peptide or BSA in 50 mM NaHCO3 pH 9.6, 4°C overnight; α1β1-integrin 1 µg/mL in TBS with 1% BSA, 1 mM MgCl2, 2 mM CaCl2, RT 3 h; detected with biotinylated anti-β1-integrin antibody and streptavidin-peroxidase; normalised to BSA-coated wells; both purified
binding [1],Substance,binding (pentastatin (human)),binding [2],binding (random peptide control)
binds,"β1-integrin subunit, endogenous on human pulmonary arterial endothelial cells (hPAECs) (from UniProt P05556 21-798) (receptor)",,,
,α1β1-integrin (from UniProt P56199 29-1141; P05556 21-728) (complex),binds,binds,no binding
